According to the supplement of paper PMC12819154, “High-throughput peptide-centric local stability assay extends protein–ligand identification to membrane proteins, tissues and bacteria” (Nature Structural & Molecular Biology, 2025):
Some of the results follow. Most values lie at the level of the controls, where differences are scatter.

The chains behind the UniProt entries cited, without tags or fusion partners. Where a name states a change or a piece, a line headed by the entry shows the natural chain unless it says otherwise.
UniProt Q15697: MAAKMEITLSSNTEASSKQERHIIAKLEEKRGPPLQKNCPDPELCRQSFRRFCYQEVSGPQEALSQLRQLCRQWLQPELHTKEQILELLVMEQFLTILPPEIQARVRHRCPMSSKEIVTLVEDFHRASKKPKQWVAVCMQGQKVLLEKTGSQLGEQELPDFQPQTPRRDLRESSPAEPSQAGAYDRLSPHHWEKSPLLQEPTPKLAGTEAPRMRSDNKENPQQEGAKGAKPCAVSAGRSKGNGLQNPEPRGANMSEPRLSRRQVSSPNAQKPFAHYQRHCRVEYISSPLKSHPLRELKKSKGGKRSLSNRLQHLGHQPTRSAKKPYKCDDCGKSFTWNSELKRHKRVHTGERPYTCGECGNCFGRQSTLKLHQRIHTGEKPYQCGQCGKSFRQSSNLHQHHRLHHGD
UniProt Q309B1, whole entry: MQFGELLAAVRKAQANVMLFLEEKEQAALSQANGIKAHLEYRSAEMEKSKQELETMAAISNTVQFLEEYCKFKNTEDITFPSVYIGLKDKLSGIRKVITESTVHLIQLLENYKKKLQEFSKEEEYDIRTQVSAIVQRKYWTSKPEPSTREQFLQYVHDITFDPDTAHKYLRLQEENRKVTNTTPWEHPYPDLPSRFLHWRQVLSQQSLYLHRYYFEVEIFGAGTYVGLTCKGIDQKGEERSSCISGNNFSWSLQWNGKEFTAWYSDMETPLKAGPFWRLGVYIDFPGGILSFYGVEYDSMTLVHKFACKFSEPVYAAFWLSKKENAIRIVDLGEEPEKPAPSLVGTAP
UniProt Q1RMZ1: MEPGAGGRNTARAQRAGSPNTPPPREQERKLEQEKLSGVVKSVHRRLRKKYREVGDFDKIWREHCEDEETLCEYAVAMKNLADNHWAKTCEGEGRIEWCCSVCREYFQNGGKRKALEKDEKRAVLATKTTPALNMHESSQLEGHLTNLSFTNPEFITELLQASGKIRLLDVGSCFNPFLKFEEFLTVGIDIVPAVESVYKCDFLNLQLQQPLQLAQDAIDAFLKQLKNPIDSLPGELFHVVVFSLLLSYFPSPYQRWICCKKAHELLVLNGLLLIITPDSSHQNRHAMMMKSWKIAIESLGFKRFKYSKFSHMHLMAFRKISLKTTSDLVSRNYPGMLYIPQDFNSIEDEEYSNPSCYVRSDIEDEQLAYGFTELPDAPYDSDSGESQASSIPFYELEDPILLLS
UniProt Q16352: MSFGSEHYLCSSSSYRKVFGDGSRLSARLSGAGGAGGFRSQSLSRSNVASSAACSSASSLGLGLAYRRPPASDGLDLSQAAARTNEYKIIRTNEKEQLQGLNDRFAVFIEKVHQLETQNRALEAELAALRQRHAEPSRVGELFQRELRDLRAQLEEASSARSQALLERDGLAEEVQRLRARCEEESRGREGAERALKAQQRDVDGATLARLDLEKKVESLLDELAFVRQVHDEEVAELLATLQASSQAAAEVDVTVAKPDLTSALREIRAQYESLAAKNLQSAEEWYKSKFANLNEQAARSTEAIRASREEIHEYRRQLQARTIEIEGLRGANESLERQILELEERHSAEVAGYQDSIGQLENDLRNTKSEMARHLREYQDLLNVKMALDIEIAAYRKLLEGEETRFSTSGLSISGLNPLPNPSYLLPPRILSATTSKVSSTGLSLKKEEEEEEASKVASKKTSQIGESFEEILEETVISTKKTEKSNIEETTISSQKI
UniProt Q2M296: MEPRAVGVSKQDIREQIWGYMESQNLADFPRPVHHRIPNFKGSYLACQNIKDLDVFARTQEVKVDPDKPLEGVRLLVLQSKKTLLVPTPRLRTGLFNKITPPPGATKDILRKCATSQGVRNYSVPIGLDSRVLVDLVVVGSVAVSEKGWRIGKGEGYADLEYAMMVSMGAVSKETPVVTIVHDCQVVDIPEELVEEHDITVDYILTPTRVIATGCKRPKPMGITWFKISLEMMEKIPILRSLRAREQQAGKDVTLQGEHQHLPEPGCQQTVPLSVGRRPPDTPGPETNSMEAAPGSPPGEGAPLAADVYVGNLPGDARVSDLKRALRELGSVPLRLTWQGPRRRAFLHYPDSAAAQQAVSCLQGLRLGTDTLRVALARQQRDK
UniProt Q16384, whole entry: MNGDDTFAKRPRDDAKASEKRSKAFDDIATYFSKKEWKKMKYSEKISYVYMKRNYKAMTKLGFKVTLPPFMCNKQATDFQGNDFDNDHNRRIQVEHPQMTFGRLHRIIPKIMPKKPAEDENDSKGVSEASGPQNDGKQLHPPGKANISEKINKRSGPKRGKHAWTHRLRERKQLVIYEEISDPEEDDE
UniProt Q15906, whole entry: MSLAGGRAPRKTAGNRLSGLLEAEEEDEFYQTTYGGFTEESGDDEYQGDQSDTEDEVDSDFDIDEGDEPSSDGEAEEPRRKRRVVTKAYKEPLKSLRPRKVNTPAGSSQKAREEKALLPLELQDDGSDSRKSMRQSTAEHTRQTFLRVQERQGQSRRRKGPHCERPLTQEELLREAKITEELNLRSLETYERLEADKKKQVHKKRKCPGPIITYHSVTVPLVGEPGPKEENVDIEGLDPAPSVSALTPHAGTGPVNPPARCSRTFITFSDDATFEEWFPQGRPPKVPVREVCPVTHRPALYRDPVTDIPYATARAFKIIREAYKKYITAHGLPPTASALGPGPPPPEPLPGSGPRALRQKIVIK
UniProt Q15418, whole entry: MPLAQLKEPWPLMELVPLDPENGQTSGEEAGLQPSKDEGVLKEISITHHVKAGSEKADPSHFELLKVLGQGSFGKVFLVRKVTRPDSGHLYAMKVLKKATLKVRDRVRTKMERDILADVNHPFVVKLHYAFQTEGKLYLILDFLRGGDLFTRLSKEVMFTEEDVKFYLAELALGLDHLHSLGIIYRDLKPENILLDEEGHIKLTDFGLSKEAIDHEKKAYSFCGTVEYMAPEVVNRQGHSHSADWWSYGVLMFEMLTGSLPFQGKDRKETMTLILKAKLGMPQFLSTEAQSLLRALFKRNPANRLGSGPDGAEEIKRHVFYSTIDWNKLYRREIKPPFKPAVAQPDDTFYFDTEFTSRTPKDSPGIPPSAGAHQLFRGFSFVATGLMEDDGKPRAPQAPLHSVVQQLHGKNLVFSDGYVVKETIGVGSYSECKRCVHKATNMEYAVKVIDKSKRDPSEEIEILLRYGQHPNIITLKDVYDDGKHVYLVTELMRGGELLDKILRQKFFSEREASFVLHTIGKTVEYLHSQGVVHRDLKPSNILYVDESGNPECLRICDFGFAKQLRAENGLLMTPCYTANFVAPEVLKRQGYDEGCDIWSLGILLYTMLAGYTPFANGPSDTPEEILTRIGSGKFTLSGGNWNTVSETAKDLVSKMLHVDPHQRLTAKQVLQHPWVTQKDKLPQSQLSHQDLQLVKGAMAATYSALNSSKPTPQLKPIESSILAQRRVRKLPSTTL
UniProt Q15811: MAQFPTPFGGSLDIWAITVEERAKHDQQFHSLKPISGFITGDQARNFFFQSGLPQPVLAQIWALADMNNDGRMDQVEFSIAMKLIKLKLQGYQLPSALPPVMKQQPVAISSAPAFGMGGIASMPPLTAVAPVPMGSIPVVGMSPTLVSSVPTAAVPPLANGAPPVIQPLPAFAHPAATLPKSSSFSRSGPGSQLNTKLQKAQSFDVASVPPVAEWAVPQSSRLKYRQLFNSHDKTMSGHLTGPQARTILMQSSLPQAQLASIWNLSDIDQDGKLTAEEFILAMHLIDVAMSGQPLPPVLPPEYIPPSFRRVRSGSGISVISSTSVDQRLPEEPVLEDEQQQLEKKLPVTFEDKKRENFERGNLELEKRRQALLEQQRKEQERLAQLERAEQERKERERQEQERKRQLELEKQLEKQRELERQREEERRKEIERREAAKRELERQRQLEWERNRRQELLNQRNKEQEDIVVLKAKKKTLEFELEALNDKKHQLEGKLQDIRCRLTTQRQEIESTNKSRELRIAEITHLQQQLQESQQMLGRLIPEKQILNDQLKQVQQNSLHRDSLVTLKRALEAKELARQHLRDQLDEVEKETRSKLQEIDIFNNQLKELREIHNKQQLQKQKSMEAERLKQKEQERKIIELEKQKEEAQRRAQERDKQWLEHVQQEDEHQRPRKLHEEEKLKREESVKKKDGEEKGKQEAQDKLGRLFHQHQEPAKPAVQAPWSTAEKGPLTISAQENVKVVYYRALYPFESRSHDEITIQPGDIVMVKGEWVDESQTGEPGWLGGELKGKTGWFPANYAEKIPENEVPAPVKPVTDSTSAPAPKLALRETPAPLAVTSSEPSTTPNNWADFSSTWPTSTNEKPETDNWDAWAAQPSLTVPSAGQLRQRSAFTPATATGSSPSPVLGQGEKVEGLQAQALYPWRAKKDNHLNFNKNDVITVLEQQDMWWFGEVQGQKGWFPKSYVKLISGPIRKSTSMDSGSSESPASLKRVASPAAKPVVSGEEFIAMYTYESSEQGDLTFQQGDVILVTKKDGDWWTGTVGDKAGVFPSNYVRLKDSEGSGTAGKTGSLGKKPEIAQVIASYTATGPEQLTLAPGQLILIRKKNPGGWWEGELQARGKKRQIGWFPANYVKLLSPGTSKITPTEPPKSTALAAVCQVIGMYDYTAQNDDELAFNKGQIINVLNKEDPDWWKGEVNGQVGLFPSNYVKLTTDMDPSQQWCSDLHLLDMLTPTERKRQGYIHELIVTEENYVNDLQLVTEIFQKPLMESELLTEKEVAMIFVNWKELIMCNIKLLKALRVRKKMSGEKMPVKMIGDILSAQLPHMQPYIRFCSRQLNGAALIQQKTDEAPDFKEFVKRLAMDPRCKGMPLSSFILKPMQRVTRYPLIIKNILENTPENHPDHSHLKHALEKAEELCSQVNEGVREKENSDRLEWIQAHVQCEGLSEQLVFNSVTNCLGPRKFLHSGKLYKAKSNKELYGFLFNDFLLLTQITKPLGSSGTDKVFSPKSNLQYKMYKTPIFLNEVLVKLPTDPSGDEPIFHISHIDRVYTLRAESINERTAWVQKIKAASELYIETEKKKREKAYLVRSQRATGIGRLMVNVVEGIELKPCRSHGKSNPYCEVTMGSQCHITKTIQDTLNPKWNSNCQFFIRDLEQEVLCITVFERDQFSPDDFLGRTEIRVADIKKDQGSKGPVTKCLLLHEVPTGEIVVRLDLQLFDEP
UniProt Q16829: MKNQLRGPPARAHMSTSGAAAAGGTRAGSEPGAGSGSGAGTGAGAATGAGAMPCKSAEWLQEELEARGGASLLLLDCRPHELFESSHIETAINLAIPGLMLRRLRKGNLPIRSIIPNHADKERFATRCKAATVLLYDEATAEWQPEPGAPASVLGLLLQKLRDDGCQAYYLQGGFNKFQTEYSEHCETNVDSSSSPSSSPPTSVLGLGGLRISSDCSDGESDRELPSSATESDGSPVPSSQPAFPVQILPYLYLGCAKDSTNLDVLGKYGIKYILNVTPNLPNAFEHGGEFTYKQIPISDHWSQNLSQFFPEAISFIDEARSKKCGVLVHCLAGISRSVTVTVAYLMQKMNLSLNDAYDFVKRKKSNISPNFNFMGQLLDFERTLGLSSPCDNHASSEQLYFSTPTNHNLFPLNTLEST
UniProt Q16637, whole entry: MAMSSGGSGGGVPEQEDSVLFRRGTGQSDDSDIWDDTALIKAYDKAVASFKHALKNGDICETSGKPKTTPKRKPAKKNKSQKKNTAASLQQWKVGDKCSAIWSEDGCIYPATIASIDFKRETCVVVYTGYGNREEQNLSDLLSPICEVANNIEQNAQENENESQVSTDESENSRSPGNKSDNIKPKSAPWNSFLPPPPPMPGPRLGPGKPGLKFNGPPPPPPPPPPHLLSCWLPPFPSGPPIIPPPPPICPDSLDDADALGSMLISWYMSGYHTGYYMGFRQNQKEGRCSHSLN
UniProt Q2TAL8: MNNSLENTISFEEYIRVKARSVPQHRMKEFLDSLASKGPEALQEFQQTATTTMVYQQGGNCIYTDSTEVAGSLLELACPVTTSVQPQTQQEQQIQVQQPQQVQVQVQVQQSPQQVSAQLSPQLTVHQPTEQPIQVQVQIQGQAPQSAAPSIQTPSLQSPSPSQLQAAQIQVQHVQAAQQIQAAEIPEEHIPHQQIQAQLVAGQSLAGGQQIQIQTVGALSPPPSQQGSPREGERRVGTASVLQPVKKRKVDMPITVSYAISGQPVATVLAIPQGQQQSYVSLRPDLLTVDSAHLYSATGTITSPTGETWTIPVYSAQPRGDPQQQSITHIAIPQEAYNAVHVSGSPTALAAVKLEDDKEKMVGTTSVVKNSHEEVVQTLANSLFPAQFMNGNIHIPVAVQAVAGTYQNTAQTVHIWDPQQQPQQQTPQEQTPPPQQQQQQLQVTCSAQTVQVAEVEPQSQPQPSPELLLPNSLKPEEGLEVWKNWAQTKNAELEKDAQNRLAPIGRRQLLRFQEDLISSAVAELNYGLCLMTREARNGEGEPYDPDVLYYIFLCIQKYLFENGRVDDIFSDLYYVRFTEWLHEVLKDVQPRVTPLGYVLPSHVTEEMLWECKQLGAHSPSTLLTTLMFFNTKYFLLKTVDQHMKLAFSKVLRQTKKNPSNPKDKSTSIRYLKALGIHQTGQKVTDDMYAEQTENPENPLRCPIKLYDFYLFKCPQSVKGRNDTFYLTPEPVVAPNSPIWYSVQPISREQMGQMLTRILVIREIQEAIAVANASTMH

These targets were tested with Cc1nc(Nc2ncc(C(=O)Nc3c(C)cccc3Cl)s2)cc(N2CCN(CCO)CC2)n1 [dasatinib] (assay: log2 fold change of tryptic peptide abundance, ligand vs vehicle (limited proteolysis) (log2 ratio); higher = more trypsin-susceptible (destabilized)). Conditions: ligand concentration: 5 uM; sample: K562 cleared lysate.

Row | Target | log2 fold change
1 | RSU1 (peptide sequence: EIGELTQLK, peptide start residue: 175) (UniProt Q15404) | -0.127
2 | UniProt Q15697 (peptide sequence: SPLLQEPTPK, peptide start residue: 195) | 0.379
3 | UniProt Q309B1 (peptide sequence: LQEENRK, peptide start residue: 388) | 0.251
4 | BMT2 (peptide sequence: NLADNHWAK, peptide start residue: 80) (UniProt Q1RMZ1) | 0.414
5 | HERC1 (peptide sequence: VLAENGHNSDCASSPVVHEDVEMR, peptide start residue: 2537) (UniProt Q15751) | -0.706
6 | UniProt Q16352 (peptide sequence: EYQDLLNVK, peptide start residue: 382) | -0.0894
7 | HKDC1 (peptide sequence: MLPTFVR, peptide start residue: 63) (UniProt Q2TB90) | 0.0289
8 | PWP2 (peptide sequence: HLEFYLLWTHK, peptide start residue: 815) (UniProt Q15269) | 0.233
9 | UniProt Q2M3W8 (peptide sequence: ESPTADSVYK, peptide start residue: 147) | -0.262
10 | VAMP3 (peptide sequence: STGPTAATGSNRR, peptide start residue: 2) (UniProt Q15836) | 0.327
11 | MTHFSD (peptide sequence: TQEVKVDPDKPLEGVR, peptide start residue: 59) (UniProt Q2M296) | 0.635
12 | ATP6AP1 (peptide sequence: SEDVPYTAALTAVRPSR, peptide start residue: 212) (UniProt Q15904) | 0.202
13 | RALBP1 (peptide sequence: QIASEKEEIER, peptide start residue: 506) (UniProt Q15311) | -0.24
14 | UniProt Q15750 (peptide sequence: QTSLDAVAQAVVDRVK, peptide start residue: 320) | 0.129
15 | UniProt Q155Q3 (peptide sequence: GTSDLQLVR, peptide start residue: 509) | -0.225
16 | RHEB (peptide sequence: VQIPIMLVGNKK, peptide start residue: 110) (UniProt Q15382) | -0.111
17 | C18orf21 (peptide sequence: NYTLSFK, peptide start residue: 79) (UniProt Q32NC0) | 0.654
18 | LONRF2 (peptide sequence: CMETGTKR, peptide start residue: 568) (UniProt Q1L5Z9) | -0.517
19 | CCDC6 (peptide sequence: KASVTIQAR, peptide start residue: 96) (UniProt Q16204) | -0.0983
20 | SSX1 (peptide sequence: QATDFQGNDFDNDHNRR, peptide start residue: 75) (UniProt Q16384) | 0.145
21 | VPS72 (peptide sequence: SLETYER, peptide start residue: 186) (UniProt Q15906) | 0.0905
22 | UniProt Q15418 (peptide sequence: EAIDHEKK, peptide start residue: 211) | -0.285
23 | ITSN1 (peptide sequence: DKQWLEHVQQEDEHQRPR, peptide start residue: 657) (UniProt Q15811) | -0.352
24 | UniProt Q16829 (peptide sequence: LRDDGCQAYYLQGGFNK, peptide start residue: 161) | -0.0904
25 | UniProt Q15046 (peptide sequence: FELFVMKK, peptide start residue: 486) | -0.251
26 | UniProt Q16637 (peptide sequence: SPGNKSDNIKPK, peptide start residue: 175) | 0.704
27 | SHROOM1 (peptide sequence: LLQDQLDAIR, peptide start residue: 812) (UniProt Q2M3G4) | 0.497
28 | QRICH1 (peptide sequence: MVGTTSVVK, peptide start residue: 361) (UniProt Q2TAL8) | -0.0519
29 | SURF2 (peptide sequence: KDLGSTEDGDGTDDFLTDKEDEK, peptide start residue: 179) (UniProt Q15527) | 0.211

Some values from above.
log2 fold change, HKDC1 (peptide sequence: MLPTFVR, peptide start residue: 63) (UniProt Q2TB90) reads 0.0289
log2 fold change, SURF2 (peptide sequence: KDLGSTEDGDGTDDFLTDKEDEK, peptide start residue: 179) (UniProt Q15527) reads 0.211
